Source: PubChem BioAssay AID602196 (INSERM, 2012)
This is a random part of about 23,000 deposited reagents. 455 of all reagents (2%) count as active. 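Active includes both protection and sensitisation; some change values fall well beyond the stated -50 to +50 range.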 Further read-outs or replicates are left out here. Not given: the amount of reagent.

- Purpose: 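Modifiers of cisplatin sensitivity in A549 cells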
- Cells: human A549 lung cancer cells
- Reagents: siRNA pair against human genes
- Time to read-out: 48 h transfection before cisplatin; time from cisplatin to read-out not stated
- Challenge: cisplatin at a dose killing half of control-siRNA cells; exact dose and duration not given
- Detection: 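Cisplatin cell death as a shift from the 50% death seen with control siRNA; siRNAs toxic or growth-blocking alone scored 0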
- Reading the numbers: two-siRNA summed score (-2 to +2): higher = both siRNAs protect from cisplatin killing; -2 means both sensitise
- Active means: 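siRNAs harmful alone (LDH or WST-1) get 0; others get +1 for less and -1 for more cisplatin killing; genes are active when the two siRNAs give the same sign, summing to ±2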
- Meaning of the calls: active = both siRNAs shift cisplatin killing the same way; inactive = no consistent shift, or siRNA harmful alone

| gene | two-siRNA summed score (-2 to +2) | Call |
| --- | --- | --- |
| EPC1 (GeneID 80314) | 0 | inactive |
| LOC133993 | 0 | inactive |
| LOC389339 | 1 | inactive |
| ZCCHC12 (GeneID 170261) | 0 | inactive |
| LOC400870 (retired record) (GeneID 400870) | 0 | inactive |
| LILRA5 (GeneID 353514) | 0 | inactive |
| MSX2 (GeneID 4488) | 0 | inactive |
| CREB3L1 (GeneID 90993) | 0 | inactive |
| CORO2B (GeneID 10391) | 1 | inactive |
| TMEM106A (GeneID 113277) | 0 | inactive |
| BAIAP2 (GeneID 10458) | 1 | inactive |
| EMC7 (GeneID 56851) | 0 | inactive |
| BRSK2 (GeneID 9024) | 1 | inactive |
| RPL13 (GeneID 6137) | 0 | inactive |
| LOC440666 | 1 | inactive |
| DMXL2 (GeneID 23312) | 0 | inactive |
| XKR5 (GeneID 389610) | 0 | inactive |
| UQCR10 (GeneID 29796) | 0 | inactive |
| PRAMEF30P (GeneID 441870) | 0 | inactive |
| FLJ44082 | 0 | inactive |
| ADD1 (GeneID 118) | -1 | inactive |
| WAPL (GeneID 23063) | 0 | inactive |
| RIMS4 (GeneID 140730) | 0 | inactive |
| CYTH2 (GeneID 9266) | -1 | inactive |
| IGFLR1 (GeneID 79713) | -1 | inactive |
| LOC388255 | 0 | inactive |
| PAPOLG (GeneID 64895) | 0 | inactive |
| ATL1 (GeneID 51062) | -1 | inactive |
| DESI2 (GeneID 51029) | -1 | inactive |
| GLRA1 (GeneID 2741) | 0 | inactive |
| ZNF440 (GeneID 126070) | 0 | inactive |
| COPS2 (GeneID 9318) | 0 | inactive |
| CD200R1 (GeneID 131450) | 0 | inactive |
| CLCA2 (GeneID 9635) | 0 | inactive |
| KLHL18 (GeneID 23276) | 0 | inactive |
| CHGB (GeneID 1114) | 0 | inactive |
| FLJ42528 | 0 | inactive |
| KLK8 (GeneID 11202) | 0 | inactive |
| LAMP1 (GeneID 3916) | 1 | inactive |

Look-ups from above.
KLHL18 (GeneID 23276), two-siRNA summed score (-2 to +2) = 0
MSX2 (GeneID 4488), two-siRNA summed score (-2 to +2) = 0
